Results are given in words; binding and its absence hold for the method and conditions named. Binding seen in cells or lysates may run through a third protein. Some entries that bind do so weakly or less than the wild type.

Protein sequences, listed by entry. Tags and fused reporters are not part of them.
UniProt O14746: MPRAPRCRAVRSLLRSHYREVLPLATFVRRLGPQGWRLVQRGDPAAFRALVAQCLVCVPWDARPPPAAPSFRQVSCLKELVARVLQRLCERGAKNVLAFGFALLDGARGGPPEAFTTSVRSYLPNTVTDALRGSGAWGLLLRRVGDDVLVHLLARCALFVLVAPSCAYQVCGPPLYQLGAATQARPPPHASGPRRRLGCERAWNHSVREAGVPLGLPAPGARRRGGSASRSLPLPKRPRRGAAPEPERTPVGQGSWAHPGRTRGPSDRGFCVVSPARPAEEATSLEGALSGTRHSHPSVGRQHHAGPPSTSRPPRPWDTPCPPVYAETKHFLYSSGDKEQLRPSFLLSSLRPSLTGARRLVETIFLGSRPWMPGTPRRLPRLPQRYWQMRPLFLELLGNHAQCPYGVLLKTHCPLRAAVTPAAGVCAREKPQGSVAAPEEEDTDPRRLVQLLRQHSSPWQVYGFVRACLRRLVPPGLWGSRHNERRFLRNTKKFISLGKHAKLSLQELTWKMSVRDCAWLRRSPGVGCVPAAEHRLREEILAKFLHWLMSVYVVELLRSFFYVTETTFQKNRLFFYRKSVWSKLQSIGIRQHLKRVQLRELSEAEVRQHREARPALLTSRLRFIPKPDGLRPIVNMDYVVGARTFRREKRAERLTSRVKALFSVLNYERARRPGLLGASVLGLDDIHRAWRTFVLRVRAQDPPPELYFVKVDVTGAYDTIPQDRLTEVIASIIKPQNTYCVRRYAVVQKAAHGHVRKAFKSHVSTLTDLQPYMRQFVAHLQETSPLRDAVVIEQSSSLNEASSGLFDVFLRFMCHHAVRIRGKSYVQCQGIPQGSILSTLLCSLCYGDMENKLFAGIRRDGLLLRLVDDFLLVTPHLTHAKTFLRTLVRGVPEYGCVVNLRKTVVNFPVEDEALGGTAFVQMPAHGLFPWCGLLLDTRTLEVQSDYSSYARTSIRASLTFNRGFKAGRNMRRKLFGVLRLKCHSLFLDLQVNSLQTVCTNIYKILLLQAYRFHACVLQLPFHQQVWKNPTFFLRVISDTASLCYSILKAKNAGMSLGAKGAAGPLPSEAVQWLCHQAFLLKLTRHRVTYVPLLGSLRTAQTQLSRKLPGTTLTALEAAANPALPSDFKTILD
UniProt Q15554: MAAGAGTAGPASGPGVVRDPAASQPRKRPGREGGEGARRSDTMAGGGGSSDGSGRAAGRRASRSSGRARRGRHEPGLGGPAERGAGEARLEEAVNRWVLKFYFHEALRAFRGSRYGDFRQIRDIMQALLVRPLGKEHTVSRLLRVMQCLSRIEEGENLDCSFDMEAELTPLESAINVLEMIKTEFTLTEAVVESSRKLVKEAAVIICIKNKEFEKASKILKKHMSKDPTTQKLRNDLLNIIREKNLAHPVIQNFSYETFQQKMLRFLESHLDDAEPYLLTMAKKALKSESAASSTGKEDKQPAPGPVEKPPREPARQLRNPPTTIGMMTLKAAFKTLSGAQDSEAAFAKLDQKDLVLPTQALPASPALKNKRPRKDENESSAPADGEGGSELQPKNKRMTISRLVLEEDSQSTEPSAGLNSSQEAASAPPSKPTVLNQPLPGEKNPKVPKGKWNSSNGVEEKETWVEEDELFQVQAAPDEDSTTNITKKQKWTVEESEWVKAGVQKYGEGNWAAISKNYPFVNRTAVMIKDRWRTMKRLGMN
UniProt Q9BUR4: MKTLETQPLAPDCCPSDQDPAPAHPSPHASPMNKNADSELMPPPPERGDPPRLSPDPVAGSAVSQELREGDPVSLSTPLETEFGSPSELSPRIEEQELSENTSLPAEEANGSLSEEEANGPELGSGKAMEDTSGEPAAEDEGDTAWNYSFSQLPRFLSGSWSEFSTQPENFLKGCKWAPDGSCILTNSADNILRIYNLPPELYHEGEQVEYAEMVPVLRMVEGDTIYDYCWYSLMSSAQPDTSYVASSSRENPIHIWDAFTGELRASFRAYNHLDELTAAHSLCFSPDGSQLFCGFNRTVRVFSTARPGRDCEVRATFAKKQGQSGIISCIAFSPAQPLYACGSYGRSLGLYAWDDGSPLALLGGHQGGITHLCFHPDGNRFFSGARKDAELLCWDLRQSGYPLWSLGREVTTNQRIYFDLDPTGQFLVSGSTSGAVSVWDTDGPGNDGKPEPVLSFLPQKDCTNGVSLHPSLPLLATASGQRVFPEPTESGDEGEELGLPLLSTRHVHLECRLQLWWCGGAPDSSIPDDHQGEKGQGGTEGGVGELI
UniProt Q9Y265: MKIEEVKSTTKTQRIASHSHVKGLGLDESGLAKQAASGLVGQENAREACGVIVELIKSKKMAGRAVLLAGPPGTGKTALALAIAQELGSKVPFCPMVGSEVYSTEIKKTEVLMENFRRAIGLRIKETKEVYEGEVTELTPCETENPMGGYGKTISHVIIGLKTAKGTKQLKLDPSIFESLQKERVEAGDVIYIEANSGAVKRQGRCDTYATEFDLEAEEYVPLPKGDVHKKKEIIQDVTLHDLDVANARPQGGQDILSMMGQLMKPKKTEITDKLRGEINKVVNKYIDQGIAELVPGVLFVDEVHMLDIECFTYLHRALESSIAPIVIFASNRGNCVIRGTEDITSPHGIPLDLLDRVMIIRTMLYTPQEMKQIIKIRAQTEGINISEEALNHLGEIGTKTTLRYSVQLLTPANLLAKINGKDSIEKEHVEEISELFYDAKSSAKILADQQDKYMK

Common to all, as to assay: co-IP; Huh 7 cells infected with rLV, rLV-CALR or rLV-CALR + rLV-shRNA-ARAF; IgG Co-IP as negative control
Assay [1] has as its target telomerase reverse transcriptase (human (endogenous in Huh 7)) (UniProt O14746).
The target in assay [2] is T1, CTC1-STN1-TEN1 (CST)/alpha accessory factor (AAF) (human (endogenous in Huh 7)), Q2NKJ3.
T1 chain 1: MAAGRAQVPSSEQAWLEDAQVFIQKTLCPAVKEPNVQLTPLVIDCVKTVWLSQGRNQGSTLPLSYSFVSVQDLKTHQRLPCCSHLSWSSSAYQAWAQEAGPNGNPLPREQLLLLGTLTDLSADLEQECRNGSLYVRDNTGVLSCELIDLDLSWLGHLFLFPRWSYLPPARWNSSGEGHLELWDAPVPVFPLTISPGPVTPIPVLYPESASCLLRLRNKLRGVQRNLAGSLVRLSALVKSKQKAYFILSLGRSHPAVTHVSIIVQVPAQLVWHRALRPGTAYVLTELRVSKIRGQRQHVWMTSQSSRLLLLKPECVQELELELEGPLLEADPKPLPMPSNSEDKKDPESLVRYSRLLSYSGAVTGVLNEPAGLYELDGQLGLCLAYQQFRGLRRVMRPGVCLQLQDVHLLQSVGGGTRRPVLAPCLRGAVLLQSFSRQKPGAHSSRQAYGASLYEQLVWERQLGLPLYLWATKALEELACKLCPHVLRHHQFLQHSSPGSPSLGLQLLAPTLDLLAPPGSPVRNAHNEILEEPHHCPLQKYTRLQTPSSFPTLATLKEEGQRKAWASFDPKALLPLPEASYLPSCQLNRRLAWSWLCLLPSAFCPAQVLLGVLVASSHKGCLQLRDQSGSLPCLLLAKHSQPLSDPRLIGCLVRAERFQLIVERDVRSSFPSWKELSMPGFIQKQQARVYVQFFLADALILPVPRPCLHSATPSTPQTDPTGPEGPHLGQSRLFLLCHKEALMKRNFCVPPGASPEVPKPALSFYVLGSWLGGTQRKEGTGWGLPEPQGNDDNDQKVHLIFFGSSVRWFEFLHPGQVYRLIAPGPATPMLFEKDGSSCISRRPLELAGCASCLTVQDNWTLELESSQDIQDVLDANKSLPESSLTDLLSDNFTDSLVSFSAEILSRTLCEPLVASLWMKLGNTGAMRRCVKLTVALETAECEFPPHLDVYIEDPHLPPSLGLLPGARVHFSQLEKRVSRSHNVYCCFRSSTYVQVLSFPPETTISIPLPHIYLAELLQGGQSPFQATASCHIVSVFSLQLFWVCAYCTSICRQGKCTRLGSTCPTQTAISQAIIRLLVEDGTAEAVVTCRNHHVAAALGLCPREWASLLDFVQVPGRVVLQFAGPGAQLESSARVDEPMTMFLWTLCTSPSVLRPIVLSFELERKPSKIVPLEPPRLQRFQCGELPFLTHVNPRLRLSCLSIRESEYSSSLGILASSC
T1 chain 2: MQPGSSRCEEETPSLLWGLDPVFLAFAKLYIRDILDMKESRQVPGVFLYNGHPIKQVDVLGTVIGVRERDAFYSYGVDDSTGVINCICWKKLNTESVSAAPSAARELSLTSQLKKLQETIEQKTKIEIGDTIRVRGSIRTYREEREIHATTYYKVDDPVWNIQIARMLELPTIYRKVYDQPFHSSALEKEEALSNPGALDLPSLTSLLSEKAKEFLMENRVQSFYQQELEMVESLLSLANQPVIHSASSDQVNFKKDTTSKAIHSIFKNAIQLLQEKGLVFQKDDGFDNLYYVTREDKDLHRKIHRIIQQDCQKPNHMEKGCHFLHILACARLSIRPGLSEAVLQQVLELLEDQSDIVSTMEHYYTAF
T1 chain 3: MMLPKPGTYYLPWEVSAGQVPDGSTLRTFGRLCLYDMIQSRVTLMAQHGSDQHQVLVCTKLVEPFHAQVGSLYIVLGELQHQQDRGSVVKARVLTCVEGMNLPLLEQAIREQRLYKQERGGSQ
The settings on record: remark: other sources report otherwise.

Assay [3] addresses telomeric repeat binding factor 2 (human (endogenous in Huh 7)) (UniProt Q15554).

For the molecule “telomerase Cajal body protein 1 (from UniProt Q9BUR4 1-548)”, the binding entry in assay [1] was “binds”.

For Pontin (from UniProt Q9Y265 1-456), the binding result in assay [1] is listed as “binds”.

B1: protection of telomeres 1, Q9NUX5 1-634 (protein)
chain: MSLVPATNYIYTPLNQLKGGTIVNVYGVVKFFKPPYLSKGTDYCSVVTIVDQTNVKLTCLLFSGNYEALPIIYKNGDIVRFHRLKIQVYKKETQGITSSGFASLTFEGTLGAPIIPRTSSKYFNFTTEDHKMVEALRVWASTHMSPSWTLLKLCDVQPMQYFDLTCQLLGKAEVDGASFLLKVWDGTRTPFPSWRVLIQDLVLEGDLSHIHRLQNLTIDILVYDNHVHVARSLKVGSFLRIYSLHTKLQSMNSENQTMLSLEFHLHGGTSYGRGIRVLPESNSDVDQLKKDLESANLTANQHSDVICQSEPDDSFPSSGSVSLYEVERCQQLSATILTDHQYLERTPLCAILKQKAPQQYRIRAKLRSYKPRRLFQSVKLHCPKCHLLQEVPHEGDLDIIFQDGATKTPDVKLQNTSLYDSKIWTTKNQKGRKVAVHFVKNNGILPLSNECLLLIEGGTLSEICKLSNKFNSVIPVRSGHEDLELLDLSAPFLIQGTIHHYGCKQCSSLRSIQNLNSLVDKTSWIPSSVAEALGIVPLQYVFVMTFTLDDGTGVLEAYLMDSDKFFQIPASEVLMDDDLQKSVDMIMDMFCPPGIKIDAYPWLECFIKSYNVTNGTDNQICYQIFDTTVAEDVI
For B1, the binding entry in assay [2] is given as “binds”.

B2: TERF1 interacting nuclear factor 2 (protein, UniProt Q9BSI4 1-451)
chain: MATPLVAGPAALRFAAAASWQVVRGRCVEHFPRVLEFLRSLRAVAPGLVRYRHHERLCMGLKAKVVVELILQGRPWAQVLKALNHHFPESGPIVRDPKATKQDLRKILEAQETFYQQVKQLSEAPVDLASKLQELEQEYGEPFLAAMEKLLFEYLCQLEKALPTPQAQQLQDVLSWMQPGVSITSSLAWRQYGVDMGWLLPECSVTDSVNLAEPMEQNPPQQQRLALHNPLPKAKPGTHLPQGPSSRTHPEPLAGRHFNLAPLGRRRVQSQWASTRGGHKERPTVMLFPFRNLGSPTQVISKPESKEEHAIYTADLAMGTRAASTGKSKSPCQTLGGRALKENPVDLPATEQKENCLDCYMDPLRLSLLPPRARKPVCPPSLCSSVITIGDLVLDSDEEENGQGEGKESLENYQKTKFDTLIPTLCEYLPPSGHGAIPVSSCDCRDSSRPL
For the molecule B2, the binding result in assay [3] is “binds”.

B3: centromere/microtubule binding protein 5 (protein, UniProt O60832 1-514)
chain: MADAEVIILPKKHKKKKERKSLPEEDVAEIQHAEEFLIKPESKVAKLDTSQWPLLLKNFDKLNVRTTHYTPLACGSNPLKREIGDYIRTGFINLDKPSNPSSHEVVAWIRRILRVEKTGHSGTLDPKVTGCLIVCIERATRLVKSQQSAGKEYVGIVRLHNAIEGGTQLSRALETLTGALFQRPPLIAAVKRQLRVRTIYESKMIEYDPERRLGIFWVSCEAGTYIRTLCVHLGLLLGVGGQMQELRRVRSGVMSEKDHMVTMHDVLDAQWLYDNHKDESYLRRVVYPLEKLLTSHKRLVMKDSAVNAICYGAKIMLPGVLRYEDGIEVNQEIVVITTKGEAICMAIALMTTAVISTCDHGIVAKIKRVIMERDTYPRKWGLGPKASQKKLMIKQGLLDKHGKPTDSTPATWKQEYVDYSESAKKEVVAEVVKAPQVVAEAAKTAKRKRESESESDETPPAAPQLIKKEKKKSKKDKKAKAGLESGAEPGDGDSDTTKKKKKKKKAKEVELVSE
Turning to B3, in assay [1], the binding result is on record as “binds”.

B4: sensitivity to nitrogen mustard 1 (SNM1B) (protein, UniProt Q9H816 1-532)
chain: MNGVLIPHTPIAVDFWSLRRAGTARLFFLSHMHSDHTVGLSSTWARPLYCSPITAHLLHRHLQVSKQWIQALEVGESHVLPLDEIGQETMTVTLLDANHCPGSVMFLFEGYFGTILYTGDFRYTPSMLKEPALTLGKQIHTLYLDNTNCNPALVLPSRQEAAHQIVQLIRKHPQHNIKIGLYSLGKESLLEQLALEFQTWVVLSPRRLELVQLLGLADVFTVEEKAGRIHAVDHMEICHSNMLRWNQTHPTIAILPTSRKIHSSHPDIHVIPYSDHSSYSELRAFVAALKPCQVVPIVSRRPCGGFQDSLSPRISVPLIPDSVQQYMSSSSRKPSLLWLLERRLKRPRTQGVVFESPEESADQSQADRDSKKAKKEKLSPWPADLEKQPSHHPLRIKKQLFPDLYSKEWNKAVPFCESQKRVTMLTAPLGFSVHLRSTDEEFISQKTREEIGLGSPLVPMGDDDGGPEATGNQSAWMGHGSPLSHSSKGTPLLATEFRGLALKYLLTPVNFFQAGYSSRRFDQQVEKYHKPC
As for B4, the binding result in assay [3] is given as “binds”.

B5: regulator of telomere elongation helicase (protein, UniProt Q9NZ71 1-1219)
chain: MPKIVLNGVTVDFPFQPYKCQQEYMTKVLECLQQKVNGILESPTGTGKTLCLLCTTLAWREHLRDGISARKIAERAQGELFPDRALSSWGNAAAAAGDPIACYTDIPKIIYASRTHSQLTQVINELRNTSYRPKVCVLGSREQLCIHPEVKKQESNHLQIHLCRKKVASRSCHFYNNVEEKSLEQELASPILDIEDLVKSGSKHRVCPYYLSRNLKQQADIIFMPYNYLLDAKSRRAHNIDLKGTVVIFDEAHNVEKMCEESASFDLTPHDLASGLDVIDQVLEEQTKAAQQGEPHPEFSADSPSPGLNMELEDIAKLKMILLRLEGAIDAVELPGDDSGVTKPGSYIFELFAEAQITFQTKGCILDSLDQIIQHLAGRAGVFTNTAGLQKLADIIQIVFSVDPSEGSPGSPAGLGALQSYKVHIHPDAGHRRTAQRSDAWSTTAARKRGKVLSYWCFSPGHSMHELVRQGVRSLILTSGTLAPVSSFALEMQIPFPVCLENPHIIDKHQIWVGVVPRGPDGAQLSSAFDRRFSEECLSSLGKALGNIARVVPYGLLIFFPSYPVMEKSLEFWRARDLARKMEALKPLFVEPRSKGSFSETISAYYARVAAPGSTGATFLAVCRGKASEGLDFSDTNGRGVIVTGLPYPPRMDPRVVLKMQFLDEMKGQGGAGGQFLSGQEWYRQQASRAVNQAIGRVIRHRQDYGAVFLCDHRFAFADARAQLPSWVRPHVRVYDNFGHVIRDVAQFFRVAERTMPAPAPRATAPSVRGEDAVSEAKSPGPFFSTRKAKSLDLHVPSLKQRSSGSPAAGDPESSLCVEYEQEPVPARQRPRGLLAALEHSEQRAGSPGEEQAHSCSTLSLLSEKRPAEEPRGGRKKIRLVSHPEEPVAGAQTDRAKLFMVAVKQELSQANFATFTQALQDYKGSDDFAALAACLGPLFAEDPKKHNLLQGFYQFVRPHHKQQFEEVCIQLTGRGCGYRPEHSIPRRQRAQPVLDPTGRTAPDPKLTVSTAAAQQLDPQEHLNQGRPHLSPRPPPTGDPGSQPQWGSGVPRAGKQGQHAVSAYLADARRALGSAGCSQLLAALTAYKQDDDLDKVLAVLAALTTAKPEDFPLLHRFSMFVRPHHKQRFSQTCTDLTGRPYPGMEPPGPQEERLAVPPVLTHRAPQPGPSRSEKTGKTQSKISSFLRQRPAGTVGAGGEDAGPSQSSGPPHGPAASEWGL
Take B5: in assay [3], the binding result was “binds”.

(Values after publication PMC12624556.)
